Data from publication PMC11196597.

Key:
Experiment in all cases: co-IP; mapping of VHL regions: full-length Flag-VHL or Flag-tagged acidic domain, β-domain or α-domain transiently transfected into HEK293T cells; form of UBE3B not given
[1] = molecular target: Flag-tagged acidic domain of VHL (human)
[2] = molecular target: Flag-tagged α-domain of VHL (human)
[3] = molecular target: Flag-tagged β-domain of VHL (human)

binding [1]: no binding
binding [2]: no binding
binding [3]: binds
B1: Myc-UBE3B, full-length (FL) (protein, UniProt Q7Z3V4 1-1068)
chain: MFTLSQTSRAWFIDRARQAREERLVQKERERAAVVIQAHVRSFLCRSRLQRDIRREIDDFFKADDPESTKRSALCIFKIARKLLFLFRIKEDNERFEKLCRSILSSMDAENEPKVWYVSLACSKDLTLLWIQQIKNILWYCCDFLKQLKPEILQDSRLITLYLTMLVTFTDTSTWKILRGKGESLRPAMNHICANIMGHLNQHGFYSVLQILLTRGLARPRPCLSKGTLTAAFSLALRPVIAAQFSDNLIRPFLIHIMSVPALVTHLSTVTPERLTVLESHDMLRKFIIFLRDQDRCRDVCESLEGCHTLCLMGNLLHLGSLSPRVLEEETDGFVSLLTQTLCYCRKYVSQKKSNLTHWHPVLGWFSQSVDYGLNESMHLITKQLQFLWGVPLIRIFFCDILSKKLLESQEPAHAQPASPQNVLPVKSLLKRAFQKSASVRNILRPVGGKRVDSAEVQKVCNICVLYQTSLTTLTQIRLQILTGLTYLDDLLPKLWAFICELGPHGGLKLFLECLNNDTEESKQLLAMLMLFCDCSRHLITILDDIEVYEEQISFKLEELVTISSFLNSFVFKMIWDGIVENAKGETLELFQSVHGWLMVLYERDCRRRFTPEDHWLRKDLKPSVLFQELDRDRKRAQLILQYIPHVIPHKNRVLLFRTMVTKEKEKLGLVETSSASPHVTHITIRRSRMLEDGYEQLRQLSQHAMKGVIRVKFVNDLGVDEAGIDQDGVFKEFLEEIIKRVFDPALNLFKTTSGDERLYPSPTSYIHENYLQLFEFVGKMLGKAVYEGIVVDVPFASFFLSQLLGHHHSVFYSSVDELPSLDSEFYKNLTSIKRYDGDITDLGLTLSYDEDVMGQLVCHELIPGGKTIPVTNENKISYIHLMAHFRMHTQIKNQTAALISGFRSIIKPEWIRMFSTPELQRLISGDNAEIDLEDLKKHTVYYGGFHGSHRVIIWLWDILASDFTPDERAMFLKFVTSCSRPPLLGFAYLKPPFSIRCVEVSDDQDTGDTLGSVLRGFFTIRKREPGGRLPTSSTCFNLLKLPNYSKKSVLREKLRYAISMNTGFELS

These are yes or no findings as the source states them, for the method shown. Binding seen in cells or lysates may run through a third protein. For part of these data: A result given as binding can be weak or reduced; the word gives no strength. Tags and fused reporters may be left off the sequences shown.
